# ± gives the standard deviation of the averaged measurements. This is one part of the list.
# By UniProt entry, the sequences of proteins in these tests, tags left out. Where a name states a change or a piece, a line headed by the entry shows the natural chain unless it says otherwise.
# UniProt Q9NPF4: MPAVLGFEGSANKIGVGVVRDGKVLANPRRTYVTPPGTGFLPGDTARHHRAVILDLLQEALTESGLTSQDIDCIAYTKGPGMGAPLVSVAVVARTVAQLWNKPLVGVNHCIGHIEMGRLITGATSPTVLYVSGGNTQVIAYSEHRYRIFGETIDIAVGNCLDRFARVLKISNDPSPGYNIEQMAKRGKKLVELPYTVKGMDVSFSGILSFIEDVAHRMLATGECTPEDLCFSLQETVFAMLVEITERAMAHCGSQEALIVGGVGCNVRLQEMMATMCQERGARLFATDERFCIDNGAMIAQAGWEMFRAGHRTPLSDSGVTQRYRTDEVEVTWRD
# UniProt Q9H7L9: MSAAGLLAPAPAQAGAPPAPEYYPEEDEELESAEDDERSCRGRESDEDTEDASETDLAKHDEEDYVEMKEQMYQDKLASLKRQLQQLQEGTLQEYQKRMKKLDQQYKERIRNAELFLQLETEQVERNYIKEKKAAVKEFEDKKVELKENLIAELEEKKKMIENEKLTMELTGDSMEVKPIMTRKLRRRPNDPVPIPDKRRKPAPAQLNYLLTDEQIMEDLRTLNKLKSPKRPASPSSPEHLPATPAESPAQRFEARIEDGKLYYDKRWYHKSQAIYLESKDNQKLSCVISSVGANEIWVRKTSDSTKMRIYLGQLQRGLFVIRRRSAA
# UniProt Q9H6U6: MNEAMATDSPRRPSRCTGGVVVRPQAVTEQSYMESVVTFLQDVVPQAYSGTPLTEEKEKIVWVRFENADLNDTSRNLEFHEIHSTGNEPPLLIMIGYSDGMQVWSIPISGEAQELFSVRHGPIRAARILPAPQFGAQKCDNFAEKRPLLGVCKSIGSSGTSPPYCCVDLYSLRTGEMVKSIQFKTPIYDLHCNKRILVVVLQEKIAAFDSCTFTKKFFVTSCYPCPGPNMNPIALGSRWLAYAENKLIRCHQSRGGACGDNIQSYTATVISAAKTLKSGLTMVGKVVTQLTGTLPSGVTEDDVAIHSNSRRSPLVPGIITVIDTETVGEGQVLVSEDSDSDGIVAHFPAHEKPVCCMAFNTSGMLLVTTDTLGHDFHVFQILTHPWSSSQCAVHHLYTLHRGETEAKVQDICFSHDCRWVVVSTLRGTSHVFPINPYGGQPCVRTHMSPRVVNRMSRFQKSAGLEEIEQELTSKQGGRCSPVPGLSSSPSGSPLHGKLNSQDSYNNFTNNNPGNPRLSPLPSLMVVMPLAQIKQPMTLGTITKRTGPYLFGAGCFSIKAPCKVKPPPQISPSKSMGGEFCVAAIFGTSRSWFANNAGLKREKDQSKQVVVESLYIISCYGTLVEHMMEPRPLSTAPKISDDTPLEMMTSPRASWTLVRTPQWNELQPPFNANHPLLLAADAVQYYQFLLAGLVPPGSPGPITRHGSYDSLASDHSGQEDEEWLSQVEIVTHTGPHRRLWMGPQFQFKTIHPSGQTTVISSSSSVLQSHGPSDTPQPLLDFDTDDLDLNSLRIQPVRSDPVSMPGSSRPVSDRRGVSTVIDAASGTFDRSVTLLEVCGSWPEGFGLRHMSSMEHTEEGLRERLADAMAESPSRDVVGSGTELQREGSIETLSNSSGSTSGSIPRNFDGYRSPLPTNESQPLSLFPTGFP
# UniProt Q9HDC5: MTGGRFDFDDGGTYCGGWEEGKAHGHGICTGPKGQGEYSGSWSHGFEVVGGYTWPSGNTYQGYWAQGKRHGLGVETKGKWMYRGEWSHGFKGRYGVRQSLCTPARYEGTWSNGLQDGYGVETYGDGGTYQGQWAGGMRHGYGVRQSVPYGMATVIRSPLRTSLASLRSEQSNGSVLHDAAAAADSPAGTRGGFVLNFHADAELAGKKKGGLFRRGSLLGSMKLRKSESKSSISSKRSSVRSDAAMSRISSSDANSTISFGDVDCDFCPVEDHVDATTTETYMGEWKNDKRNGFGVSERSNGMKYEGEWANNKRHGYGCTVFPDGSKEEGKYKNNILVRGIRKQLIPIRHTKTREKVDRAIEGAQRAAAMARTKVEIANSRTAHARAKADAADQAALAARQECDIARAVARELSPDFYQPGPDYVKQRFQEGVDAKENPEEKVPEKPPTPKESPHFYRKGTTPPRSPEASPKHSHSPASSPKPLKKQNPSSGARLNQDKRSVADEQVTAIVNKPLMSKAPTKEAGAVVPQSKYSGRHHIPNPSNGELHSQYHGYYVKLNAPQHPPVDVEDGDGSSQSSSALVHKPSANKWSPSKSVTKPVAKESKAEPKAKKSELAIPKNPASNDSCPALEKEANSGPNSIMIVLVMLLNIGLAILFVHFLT
# Compound: Nc1nc2c(ncn2[C@@H]2O[C@H](COP(=O)(O)OP(=O)(O)OP(=O)(O)O)[C@@H](O)[C@H]2O)c(=O)[nH]1 [guanosine triphosphate]
# Assay: NP40-soluble protein abundance relative to vehicle (solubility fold change) (ratio); higher = more soluble protein in presence of GTP
# Method: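 Solubility proteome profiling in Jurkat crude lysate. Lysate was treated with Mg-GTP (0.1-10 mM) for 10 min at room temperature and 3 min at 37 °C, then solubilised with 0.8% NP40 and benzonase, followed by ultracentrifugation. Proteins were quantified by TMT10 LC-MS/MS; the value is the NP40-soluble abundance relative to the NP40-processed vehicle, from 3 independent experiments.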
Target,NP40-soluble protein abundance (concentration: 0.1mM),NP40-soluble protein abundance (concentration: 0.5mM),NP40-soluble protein abundance (concentration: 1mM),NP40-soluble protein abundance (concentration: 2mM),NP40-soluble protein abundance (concentration: 4mM),NP40-soluble protein abundance (concentration: 6mM),NP40-soluble protein abundance (concentration: 8mM),NP40-soluble protein abundance (concentration: 10mM)
OSGEP (UniProt Q9NPF4),1.07 ± 0.042,1.02 ± 0.043,0.963 ± 0.018,0.937 ± 0.054,0.94 ± 0.063,0.915 ± 0.039,0.925 ± 0.055,0.879 ± 0.059
UniProt Q9HC38-2|F6TLX2,0.98 ± 0.013,0.968 ± 0.026,0.925 ± 0.056,0.87 ± 0.071,0.863 ± 0.09,0.862 ± 0.076,0.876 ± 0.051,0.834 ± 0.09
SUDS3 (UniProt Q9H7L9),0.951 ± 0.08,1 ± 0.048,1.044 ± 0.0054,1.04 ± 0.053,1.08 ± 0.093,1.09 ± 0.034,1.14 ± 0.07,1.13 ± 0.072
UniProt Q9H6U6 and related entries,1.01 ± 0.025,0.977 ± 0.029,1 ± 0.043,0.978 ± 0.03,0.974 ± 0.038,0.919 ± 0.022,0.957 ± 0.043,0.8795 ± 0.0066
JPH1 (UniProt Q9HDC5),1.15 ± 0.072,1.08 ± 0.18,1.09 ± 0.25,1.13 ± 0.23,1.18 ± 0.18,1.13 ± 0.2,1.18 ± 0.16,1.15 ± 0.32

# From the supplement of paper PMC6411743
